This data set is described as follows: general procedure: Fmoc solid-phase peptide synthesis; 2-chlorotrityl chloride resin; HBTU, HOBt, DIPEA. The settings on record: whole synthesis, scale 0.10 mmol, trifluoroacetate salt.

Strings that start with PEPTIDE1 are HELM notation: dots part the residues, brackets hold end groups and non-standard residues.

Take “PEPTIDE1{K.K.L.F.K.K.I.L.K.Y.L.K}$$$$V2.0”: the isolated mass came out at 155 mg.

(Values after patent publication US20250270256A1 (CELLICON LAB INC., priority 2021, published 2025).)
